Measurements: patent US12252701B2, “Chimeric antigen receptor T cell therapy” (KITE PHARMA, INC., priority 2020, dated 2025)
At least one compound was matched to its structure with a doubt left. Some entries share one result that the patent states for a list of compounds.

Key:
[1] = tested on: NALM6.GFP.LUC.CD19 target cells; test: Serial killing assay; assay type: cell-based, human
Procedure: CD19 CAR-T cells were thawed in RPMI media supplemented with HEPES, Penicillin/Streptomycin/L-Glutamine and 10% FBS and rested overnight. The following day, drugs were serially diluted and prepared in 96-well plates. Rested T cells were counted and normalized so that 25,000 or 8,333 T cells were plated with 25,000 NALM6.GFP.LUC.CD19 target cells (1:1 or 1:3 Effector:Target ratio) in the prepared 96-well plates. At 16 hour post-incubation and every 3-4 days, T cell killing of targets was measured via luciferase detection. D-luciferin substrate was added to the co-culture wells at a final concentration of 0.14 mg/mL and plates were incubated at 37° C. in the dark for 10 minutes. Luminescent signal was read immediately after in a VarioSkan™ LUX microplate reader. T cell-mediated cytotoxicity was calculated as follows: % Cytotoxicity=[1−luciferase signal of (sample of interest/target alone control)]*100. Afterwards, co-cultures were stained with LIVE/DEAD and antibodies against CD4, CD8 and KIP-1 and then washed. Cells were then analyzed and quantified via the Attune NxT flow cytometer. T cells were then repeatedly stimulated with fresh 25,000 target cells, and this process was repeated every 3-4 days.

CD19 CAR T cells = test: CAR T cell cytokine production (Luminex) under CD19 K562, KIP-1 or CD2/3/28 stimulation; details: for suppression of IL-2: CD3/CD28 stimulation
[2] = tested on: phospho-STAT panel (pSTAT3/4/5), CD3+ T cells; test: phospho-STAT induction by IL-6, MesoScale Discovery phospho-STAT panel; assay type: cell-based, human; details: IL-6 stimulation 100 ng/ml, 20 minutes; 10 μM to 0.125 μM
Procedure: CD19 CAR-T, PBMC or CD3+ T cells (AllCells) were thawed and rested 0/N at 37° C. in R10 media. Cells were seeded at 700,000 cells/well and were either untreated or treated with 100 ng/ml IL6+drug at indicated concentrations for 20 minutes at 37° C. The cells were then washed with cold PBS and followed by 60 μl of Tris lysis buffer (provided by MSD) for 30 minutes on ice. Lysates were collected by spin down for 10 minutes at >10,000 rpm. 25 μl/well per condition was used for MesoScale Discovery (MSD) assay using the phospho-STAT panel (pSTAT3/4/5) from MesoScale Discovery following the manufacturer's protocol. pSTAT panel plates were blocked with 150 μl of blocker A solution for 1 hr at RT with shaking. Plates were washed three times with 1× Tris wash buffer. 25 μl of lysate samples were added per well, incubated 2 hr at room temperature or at 4° C. overnight. Plates were washed 3 times with 1× tris wash buffer and then 25 μl of detection antibody solution were added to each well and incubated for 1 hr at room temperature with shaking. Plates were washed and 1× read buffer added to each well and plates were read on the MSD instrument.

CAR-T cells = test: CAR-T cell expansion assay (KIP-1 or CD3/CD28 stimulation); details: for effect on T cell expansion: at the doses tested (Table 40)
Nalm6 cells = test: Serial killing assay, T-cell (CD4, CD8) and Nalm6 cell counts by flow cytometry; assay type: cell-based, human; details: for impact on T-cell counts and Nalm6 (tumor) cell counts: E:T ratio of 1:1, dose titration; for T-cell counts: E:T ratio of 1:3, dose titration
Procedure: T-cell counts (CD4 and CD8) were assessed by flow cytometry.
Nalm6 cells were assessed by flow cytometry.
T-cell counts (CD4 and CD8) and Nalm6 cells were assessed by flow cytometry.

[3] = Clinical pharmacokinetic data converted to in vitro concentrations; assay type: in vivo, human; details: Cmax converted and adjusted for plasma protein binding
Source text: Given the different potencies of the JAK inhibitors and different pharmacokinetic properties for each drug, it was sought to test each drug at a relevant range of physiological concentrations based on clinical dosing and reported pharmacokinetic data from repeat dose studies. Reported Cmax values in patient sera were converted to in vitro concentrations and adjusted for reported plasma protein binding.

[4] = E:T ratio 1:3, all doses tested

C[C@H]1C[C@@H]2[C@H]([C@@H](O)C[C@@]3(C)[C@H]2CC[C@]3(O)C(=O)CO)[C@@]2(C)C=CC(=O)C=C12 [methylprednisolone]
T-cell counts ([1]; E:T ratio 1:1): decreased both CD4+ and CD8+ T cell counts | serial killing ([1]; E:T ratio 1:1): negative impacts | T-cell counts [1, 4]: increased | serial killing [1, 4]: enhancement was observed | suppression of cytokine production from CAR T cells (breadth and magnitude) (CD19 CAR T cells): modest impacts | suppression of IL-2 (CD19 CAR T cells): > 50% | effect on phosphorylated-STAT-1, STAT-3 and STAT-5 levels [2]: no effects | effect on T cell expansion (CAR-T cells): severe effects | impact on T-cell counts and Nalm6 (tumor) cell counts (Nalm6 cells): Differential impacts | T-cell counts (Nalm6 cells): increased

Nc1nc2cccc(-c3ccc(CN4CCS(=O)(=O)CC4)cc3)n2n1 [GS-829845]
PPB adj. in Vitro concentration [3]: 4.15 µM | T cell expansion Cell number (CAR-T cells; CD3/CD28, dose 1000 nM, day 0): 0.2 × 10e6 | T cell expansion Cell number (CAR-T cells; CD3/CD28, dose 1000 nM, day 4): 0.32 × 10e6 | T cell expansion Cell number (CAR-T cells; CD3/CD28, dose 1000 nM, day 8): 2.35 × 10e6 | T cell expansion Cell number (CAR-T cells; CD3/CD28, dose 1000 nM, day 12): 12.7 × 10e6 | T cell expansion Cell number (CAR-T cells; CD3/CD28, dose 5000 nM, day 0): 0.2 × 10e6 | T cell expansion Cell number (CAR-T cells; CD3/CD28, dose 5000 nM, day 4): 0.38 × 10e6 | T cell expansion Cell number (CAR-T cells; CD3/CD28, dose 5000 nM, day 8): 3.29 × 10e6 | T cell expansion Cell number (CAR-T cells; CD3/CD28, dose 5000 nM, day 12): 10.1 × 10e6 | T cell expansion Cell number (CAR-T cells; KIP-1, dose 1000 nM, day 0): 0.2 × 10e6 | T cell expansion Cell number (CAR-T cells; KIP-1, dose 1000 nM, day 4): 0.27 × 10e6 | T cell expansion Cell number (CAR-T cells; KIP-1, dose 1000 nM, day 8): 0.26 × 10e6 | T cell expansion Cell number (CAR-T cells; KIP-1, dose 1000 nM, day 12): 11.6 × 10e6 | T cell expansion Cell number (CAR-T cells; KIP-1, dose 5000 nM, day 0): 0.2 × 10e6 | T cell expansion Cell number (CAR-T cells; KIP-1, dose 5000 nM, day 4): 0.39 × 10e6 | T cell expansion Cell number (CAR-T cells; KIP-1, dose 5000 nM, day 8): 0.27 × 10e6 | T cell expansion Cell number (CAR-T cells; KIP-1, dose 5000 nM, day 12): 12.4 × 10e6

CCS(=O)(=O)N1CC(CC#N)(n2cc(-c3ncnc4[nH]ccc34)cn2)C1 [baricitinib]
serial killing ([1]; E:T ratio 1:1, higher doses): negatively impacted performance | serial killing ([1]; E:T ratio 1:1, lowest dose tested of 5 nM): enhanced killing | serial killing [1, 4]: negatively impacted serial killing

C[C@@H]1C[C@H]2[C@@H]3CCC4=CC(=O)C=C[C@]4(C)[C@@]3(F)[C@@H](O)C[C@]2(C)[C@@]1(O)C(=O)CO [dexamethasone]
T-cell counts ([1]; E:T ratio 1:1, 10 nM dose): increased CD4+ T cell numbers | serial killing ([1]; E:T ratio 1:1, 10 nM dose): enhancement of performance | serial killing ([1]; E:T ratio 1:1, higher doses): negative impacts | T-cell counts [1, 4]: decreased | serial killing [1, 4]: negative impacts | suppression of IL-2 (CD19 CAR T cells): > 50% | effect on phosphorylated-STAT-1, STAT-3 and STAT-5 levels [2]: no effects | effect on T cell expansion (CAR-T cells): moderate effects | impact on T-cell counts and Nalm6 (tumor) cell counts (Nalm6 cells): Differential impacts | T-cell counts (Nalm6 cells): decreased
